Test results from publication PMC5665887.
Results are given in words; binding and its absence hold for the method and conditions named. Binding seen in cells or lysates may run through a third protein. For part of these data: Binding can be weak; no strength is given. Where a sequence is shown, tags or fusion partners need not be part of it.

Experiments:
[1] = target: T1, FLAG-tagged evectin-2 ΔPPPY mutant (UniProt Q96CS7); test: co-IP; FLAG-tagged evectin-2 (WT, PPPA or ΔPPPY) expressed in COS-1 cells for 24 h; lysate in 25 mM HEPES-KOH pH 7.33, 150 mM NaCl, 1 mM EDTA, 1% Triton X-100; anti-FLAG M2 affinity gel, 2 h at 4 °C; blotted for endogenous Itch, WWP1, WWP2
T1 sequence: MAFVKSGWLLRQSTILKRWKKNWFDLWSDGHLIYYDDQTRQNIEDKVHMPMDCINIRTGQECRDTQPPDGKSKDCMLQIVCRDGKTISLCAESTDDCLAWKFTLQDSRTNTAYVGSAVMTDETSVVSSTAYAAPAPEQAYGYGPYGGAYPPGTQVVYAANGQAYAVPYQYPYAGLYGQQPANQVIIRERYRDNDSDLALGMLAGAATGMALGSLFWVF

[2] = target: T2, FLAG-tagged evectin-2 (WT) (UniProt Q96CS7); test: as above
T2 sequence: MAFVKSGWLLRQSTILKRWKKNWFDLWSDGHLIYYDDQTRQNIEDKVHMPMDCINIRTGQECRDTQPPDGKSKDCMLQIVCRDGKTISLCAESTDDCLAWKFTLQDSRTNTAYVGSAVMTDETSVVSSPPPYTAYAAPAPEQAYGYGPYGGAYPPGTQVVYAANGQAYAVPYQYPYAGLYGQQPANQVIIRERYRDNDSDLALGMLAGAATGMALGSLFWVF

Substance | binding [1] | binding [2]
Itch (endogenous) (enzyme) | no binding | binds
WWP1 (endogenous) (enzyme) | no binding | binds
WWP2 (endogenous) (enzyme) | no binding | binds
